The target in this assay is M2 protein of A/Puerto Rico/8/34 (H1N1) on virus particles (influenza A virus A/Puerto Rico/8/34 (H1N1)) (UniProt P06821). The assay is described as follows: surface plasmon resonance on influenza virus; numbers stand in Table 4. A general note: Surface plasmon resonance follows binding to a sensor surface in real time, without labels.

Chains of the proteins cited; added tags and fusions are not shown.
UniProt P06821: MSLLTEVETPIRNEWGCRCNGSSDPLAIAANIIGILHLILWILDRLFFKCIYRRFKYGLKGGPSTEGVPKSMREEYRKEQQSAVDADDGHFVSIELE

Results are given in words; binding and its absence hold for the method and conditions named. Some results given as binding are weak or reduced against the parent protein; the word gives no strength.

B1: TCN-031 Fab fragment (Fab, V domains shown)
VH: EVQLVESGGGLVQPGGSLRISCAASGFTVSSNYMSWVRQAPGKGLEWVSVIYSGGSTYYADSVKGRFSFSRDNSKNTVFLQMNSLRAEDTAVYYCARCLSRMRGYGLDVWGQGTTVTVS
VL: DIQMTQSPSSLSASVGDRVTITCRTSQSISSYLNWYQQKPGKAPKLLIYAASSLQSGVPSRFSGSGSGTDFTLTISGLQPEDFATYYCQQSYSMPAFGQGTKLEIK
For the molecule B1, the binding entry is “binds”.
